Data published in the supplement of paper PMC10331698.
± gives the standard deviation of the averaged measurements. Small differences around the control level are noise.

Assays:
Assay in all cases: level (log10 ratio to DMSO vehicle control); higher = higher biomarker level / cell amount than vehicle control
[1] = compound: O=S(=O)(O)C(F)(F)C(F)(F)C(F)(F)C(F)(F)F [Perfluorobutanesulfonic acid] (in DMSO)
Description: (§1)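 BioMAP Diversity Plus panel of 12 human primary cell co-culture systems (3C, 4H, LPS, SAg, BT, BF4T, BE3C, CASM3C, HDF3CGF, KF3CT, MyoF, Mphg). Compounds were added 1 h before stimulation and left for 24 h (MyoF 48 h; BT 72 h for soluble read-outs or 6 d for IgG). Biomarkers were read by ELISA, cytotoxicity by SRB, PBMC viability and proliferation by Alamar Blue. Each well value was divided by the mean of 8 DMSO control wells on the same plate and log10 transformed; duplicate blinded samples were tested at 4 concentrations.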

Perfluorohexanoic acid = compound: O=C(O)C(F)(F)C(F)(F)C(F)(F)C(F)(F)C(F)(F)F [Perfluorohexanoic acid] (in DMSO)
Description: as §1

[2] = compound: CNS(=O)(=O)C(F)(F)C(F)(F)C(F)(F)C(F)(F)C(F)(F)C(F)(F)C(F)(F)C(F)(F)F [N-Methylperfluorooctanesulfonamide] (in DMSO); details: 2200 nM
Description: as §1

[3] = compound: FC(F)(F)C(F)(F)C(F)(F)C(F)(F)CCI [1H,1H,2H,2H-Perfluorohexyl iodide] (in DMSO); details: 2200 nM
Description: as §1

[4] = compound: OCC(F)(F)OC(F)(F)C(F)(F)OC(F)(F)CO [1H,1H,8H,8H-Perfluoro-3,6-dioxaoctane-1,8-diol] (in DMSO); details: 2200 nM
Description: as §1

[5] = compound: OCC(F)(F)C(F)(F)C(F)(F)C(F)(F)C(F)(F)C(F)(F)F [6:1 Fluorotelomer alcohol] (in DMSO); details: 2200 nM
Description: as §1

Hexafluoroglutaric acid = compound: O=C(O)C(F)(F)C(F)(F)C(F)(F)C(=O)O [Hexafluoroglutaric acid] (in DMSO)
Description: as §1

[6] = compound: O=C(O)CCC(F)(F)C(F)(F)C(F)(F)F [3:3 Fluorotelomer carboxylic acid] (in DMSO); details: 2200 nM
Description: as §1

[7] = compound: O=C(O)C(F)(F)C(F)(F)C(F)(F)OC(F)(C(F)(F)F)C(F)(F)F [Perfluoro-4-isopropoxybutanoic acid] (in DMSO); details: 2200 nM
Description: as §1

[8] = compound: C=C(C)C(=O)OCCC(F)(F)C(F)(F)C(F)(F)C(F)(F)C(F)(F)C(F)(F)F [6:2 Fluorotelomer methacrylate] (in DMSO); details: 2200 nM
Description: as §1

[9] = compound: O=C(O)C(F)(OC(F)(F)C(F)(F)C(F)(F)F)C(F)(F)F [Ammonium perfluoro-2-methyl-3-oxahexanoate] (in Water)
Description: as §1

[10] = compound: FC(F)(F)C(F)(F)CNCC(F)(F)C(F)(F)F [Bis(1H,1H-perfluoropropyl)amine] (in DMSO); details: 2200 nM
Description: as §1

[11] = compound: OCC(F)(F)C(F)(F)C(F)(F)C(F)(F)C(F)(F)C(F)(F)CO [1H,1H,8H,8H-Perfluorooctane-1,8-diol] (in DMSO); details: 2200 nM
Description: as §1

[12] = compound: OCC(F)(F)C(F)(F)C(F)(F)C(F)F [1H,1H,5H-Perfluoropentanol] (in DMSO); details: 2200 nM
Description: as §1

[13] = compound: OCCCC(F)(F)C(F)(F)C(F)(F)C(F)(F)C(F)(F)C(F)(F)C(F)(F)C(F)(F)F [3-(Perfluorooctyl)propanol] (in DMSO); details: 2200 nM
Description: as §1

[14] = compound: FC(F)(F)COC(OCC(F)(F)F)OCC(F)(F)F [tris(Trifluoroethoxy)methane] (in DMSO); details: 2200 nM
Description: as §1

[15] = compound: O=C(O)C(F)(OC(F)(F)C(F)(OC(F)(F)C(F)(OC(F)(F)C(F)(F)C(F)(F)F)C(F)(F)F)C(F)(F)F)C(F)(F)F [Perfluoro-(2,5,8-trimethyl-3,6,9-trioxadodecanoic)acid] (in DMSO); details: 370 nM
Description: as §1

Test System	level (log10) ([1]; 2200 nM)	level (log10) ([1]; 6700 nM)	level (log10) ([1]; 20000 nM)	level (log10) ([1]; 60000 nM)	level (log10) (Perfluorohexanoic acid; 2200 nM)	level (log10) (Perfluorohexanoic acid; 6700 nM)	level (log10) (Perfluorohexanoic acid; 20000 nM)	level (log10) (Perfluorohexanoic acid; 60000 nM)	level (log10) [2]	level (log10) [3]	level (log10) [4]	level (log10) [5]	level (log10) (Hexafluoroglutaric acid; 2200 nM)	level (log10) (Hexafluoroglutaric acid; 6700 nM)	level (log10) (Hexafluoroglutaric acid; 20000 nM)	level (log10) (Hexafluoroglutaric acid; 60000 nM)	level (log10) [6]	level (log10) [7]	level (log10) [8]	level (log10) ([9]; 2200 nM)	level (log10) ([9]; 6700 nM)	level (log10) ([9]; 20000 nM)	level (log10) ([9]; 60000 nM)	level (log10) [10]	level (log10) [11]	level (log10) [12]	level (log10) [13]	level (log10) [14]	level (log10) [15]
CASM3C:Proliferation	-0.059 ± 0.028	-0.0455 ± 0.044	-0.0405 ± 0.013	-0.019 ± 0.017	-0.0185 ± 0.043	-0.001 ± 0.018	-0.065	-0.0055 ± 0.015	0.0115 ± 0.0078	0.0075 ± 0.05	-0.022 ± 0.0028	0.006 ± 0.0042	-0.006	-0.015 ± 0.083	-0.029 ± 0.0071	0.004 ± 0.0071	-0.0015 ± 0.00071	0.0015 ± 0.0021	-0.0245 ± 0.032	0.0255 ± 0.0035	-0.07 ± 0.085	-0.095 ± 0.02	-0.104 ± 0.065	-0.0205 ± 0.019	-0.0325 ± 0.0078	-0.004 ± 0.075	-0.019 ± 0.025	-0.034 ± 0.082	-0.024 ± 0.067
CASM3C:SRB	0.0035 ± 0.0021	-0.0045 ± 0.0035	-0.0045 ± 0.0035	-0.008 ± 0.0028	-0.0055 ± 0.013	-0.001	-0.013 ± 0.0028	-0.0005 ± 0.0021	0.0095 ± 0.00071	0.0135 ± 0.016	-0.0055 ± 0.011	0.006 ± 0.0042	0.002 ± 0.0099	-0.001 ± 0.0028	-0.0035 ± 0.0021	0.0065 ± 0.005	-0.006 ± 0.014	0.008 ± 0.018	0.0025 ± 0.0064	-0.0255 ± 0.005	-0.007 ± 0.0057	-0.008 ± 0.0014	-0.0105 ± 0.0064	0.0135 ± 0.019	0.0035 ± 0.0064	0.002 ± 0.0014	-0.005 ± 0.0014	-0.01 ± 0.0057	0 ± 0.0042
CASM3C:Serum Amyloid A	-0.049 ± 0.082	-0.0575 ± 0.08	-0.0795 ± 0.071	-0.068 ± 0.055	-0.0055 ± 0.018	0.0315 ± 0.012	-0.003 ± 0.0028	0.01 ± 0.047	0.045 ± 0.064	0.028 ± 0.062	-0.0105 ± 0.053	-0.006 ± 0.011	-0.015 ± 0.017	0.0395 ± 0.049	0.027 ± 0.018	0.0085 ± 0.019	-0.002 ± 0.059	0.0265 ± 0.096	-0.0125 ± 0.0092	-0.066 ± 0.03	-0.031 ± 0.04	-0.034 ± 0.03	-0.0005 ± 0.049	-0.003 ± 0.0042	0.011 ± 0.027	-0.035 ± 0.016	-0.005 ± 0.042	-0.0065 ± 0.1	0.0215 ± 0.019
HDF3CGF:CCL2/MCP-1	-0.0285 ± 0.029	-0.0075 ± 0.037	0.0005 ± 0.025	-0.023 ± 0.03	-0.002 ± 0.03	-0.0145 ± 0.00071	-0.009 ± 0.03	-0.0205 ± 0.04	0.0285 ± 0.016	0.0015 ± 0.016	0.022 ± 0.02	-0.022 ± 0.033	0.007 ± 0.0057	-0.01 ± 0.0028	-0.0215 ± 0.012	-0.005 ± 0.0042	0.0115 ± 0.016	0.007 ± 0.023	-0.0245 ± 0.013	0 ± 0.0085	0.011 ± 0.025	0.0285 ± 0.0021	0.019 ± 0.0028	-0.044 ± 0.035	-0.0015 ± 0.015	-0.0435 ± 0.042	-0.0065 ± 0.0078	0.027 ± 0.067	-0.023 ± 0.017
HDF3CGF:CD54/ICAM-1	0.0025 ± 0.018	-0.009 ± 0.016	-0.0145 ± 0.0021	0.003 ± 0.011	-0.0195 ± 0.016	-0.009 ± 0.013	-0.017 ± 0.013	-0.019 ± 0.037	-0.018 ± 0.0057	-0.0085 ± 0.00071	0.003 ± 0.0028	-0.0125 ± 0.012	0.009 ± 0.0057	0.001 ± 0.018	0.0035 ± 0.013	0.004 ± 0.016	0.0055 ± 0.0078	-0.0125 ± 0.0092	-0.0155 ± 0.0064	-0.0025 ± 0.00071	-0.0075 ± 0.015	-0.0245 ± 0.005	-0.0555 ± 0.012	0.036 ± 0.033	-0.0045 ± 0.036	0.0085 ± 0.03	0.0015 ± 0.018	-0.008 ± 0.0071	-0.0045 ± 0.018
HDF3CGF:CD106/VCAM-1	0.0025 ± 0.047	-0.02 ± 0.013	-0.01 ± 0.0014	-0.025 ± 0.058	-0.0745 ± 0.093	-0.043 ± 0.04	-0.008 ± 0.023	-0.0145 ± 0.086	-0.121 ± 0.041	-0.025 ± 0.068	-0.0025 ± 0.0092	-0.04 ± 0.098	-0.0435 ± 0.0021	-0.045 ± 0.0071	-0.0195 ± 0.071	-0.05 ± 0.12	-0.017 ± 0.0085	-0.01 ± 0.035	0.0015 ± 0.016	-0.0185 ± 0.0064	-0.039 ± 0.021	-0.044 ± 0.027	-0.131 ± 0.016	-0.0055 ± 0.032	-0.008 ± 0.0028	-0.037 ± 0.014	-0.08 ± 0.03	-0.0215 ± 0.036	-0.049 ± 0.013
HDF3CGF:CXCL8/IL-8	0.007 ± 0.018	0.0025 ± 0.0078	-0.002 ± 0.0057	-0.0025 ± 0.0021	0 ± 0.0085	-0.003 ± 0.0057	0.006 ± 0.0014	0.005 ± 0.0071	-0.0045 ± 0.016	-0.002 ± 0.014	0.0105 ± 0.0078	-0.003 ± 0.013	-0.0095 ± 0.0064	-0.005 ± 0.013	-0.0005 ± 0.0064	-0.0015 ± 0.0035	-0.0065 ± 0.0021	0.009 ± 0.0014	0.0005 ± 0.023	-0.008 ± 0.0042	-0.0135 ± 0.015	0.001 ± 0.011	0.0045 ± 0.0035	0.0085 ± 0.013	0.0065 ± 0.005	0.0095 ± 0.0021	0.0035 ± 0.00071	-0.0035 ± 0.005	-0.004 ± 0.014
